From US6306649
For at least one entry, the source does not settle the construct or the ends of the probe.

Amino acid sequences for entries named in this document (tags omitted). A change or cut given only in a name is not applied to a line headed by its entry.
UniProt P04386: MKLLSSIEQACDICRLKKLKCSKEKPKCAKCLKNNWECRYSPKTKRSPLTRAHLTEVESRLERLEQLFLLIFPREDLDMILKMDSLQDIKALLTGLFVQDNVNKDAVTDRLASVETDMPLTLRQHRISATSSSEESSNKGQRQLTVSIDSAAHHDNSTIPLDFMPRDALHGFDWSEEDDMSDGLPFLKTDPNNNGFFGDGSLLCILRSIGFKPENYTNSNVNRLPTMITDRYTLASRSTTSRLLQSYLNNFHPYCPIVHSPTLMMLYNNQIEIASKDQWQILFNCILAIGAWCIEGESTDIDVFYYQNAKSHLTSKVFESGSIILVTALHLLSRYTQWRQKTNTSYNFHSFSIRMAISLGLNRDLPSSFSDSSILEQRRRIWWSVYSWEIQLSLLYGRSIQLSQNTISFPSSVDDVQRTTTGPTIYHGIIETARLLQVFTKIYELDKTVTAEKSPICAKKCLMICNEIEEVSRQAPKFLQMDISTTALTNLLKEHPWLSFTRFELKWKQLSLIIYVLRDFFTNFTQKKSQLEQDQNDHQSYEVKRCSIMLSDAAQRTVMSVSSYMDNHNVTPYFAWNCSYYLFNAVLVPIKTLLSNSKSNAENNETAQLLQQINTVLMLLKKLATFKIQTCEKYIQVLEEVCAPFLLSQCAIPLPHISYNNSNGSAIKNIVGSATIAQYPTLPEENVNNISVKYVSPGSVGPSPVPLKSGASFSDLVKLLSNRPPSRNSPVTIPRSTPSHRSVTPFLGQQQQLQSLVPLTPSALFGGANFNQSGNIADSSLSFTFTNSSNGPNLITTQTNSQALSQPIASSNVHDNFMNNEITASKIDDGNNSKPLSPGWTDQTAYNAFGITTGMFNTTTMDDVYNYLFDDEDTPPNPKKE

How the values were obtained:
[1] = target: GAL4 DNA binding domain fused to VP16(411-490) (Saccharomyces cerevisiae) (UniProt P04386); test: activity in cells; details: [53,60,61 (printed Q read as G)]; SEAP reporter stably integrated in HT1080 B cells; 1 to 4 activation domains; protein in cells; protein details: C-terminal HSV VP16 411-490; letters built from the parent sequence and the stated change
[2] = target: GAL4 DNA binding domain fused to p65(361-550) (Saccharomyces cerevisiae) (UniProt P04386); test: activity in cells; details: [53,60,61 (printed Q read as G)]; SEAP reporter stably integrated in HT1080 B cells; 1 to 6 activation domains; protein in cells; protein details: C-terminal human p65(361-550); letters built from the parent sequence and the stated change

With “ATCGATGTTTTCTGAGTTACTTTTGTATCCCCACCCCCCCTCGAGCTTGCATGCCTGCAGGTCGGAGTACTGTCCTCCGAGCGGAGTACTGTCCTCCGAGCGGAGTACTGTCCTCCGAGCGGAGTACTGTCCTCCGAGCGGAGTACTGTCCTCCGAGCGCAGACTCTAGAGGATCCGAGAACATTTTGACACCCCCATAATATTTTTCCAGAATTAACAGTATAAATTGCATCTCTTGTTCAAGAGTTCCCTATCACTCTCTTTAATCACTACTCACAGTAACCTCAACTCCTGCCACAAGCTT (double strand) [5x GAL4 sites-IL2 minimal promoter (pLH-G5-IL2-SEAP)]” the “activity on this sequence” value [1] was “active” and the “activity on this sequence” value [2] was “active”.
